PubChem BioAssay AID1259308, NCATS, 2017

- Test: 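Candidate targets for better recombinant protein yield in mammalian cells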 (primary screen)
- Cells: human HEK293 embryonic kidney cells stably expressing firefly luciferase (HEK-CMV-Luc2-Hygro)
- Knock-down reagent: single siRNA against human genes, 0.8 pmol siRNA per well
- Timing: 72 h
- Detection: 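Luciferase light (ONE-Glo) measured on one replicate plate set and viability (CellTiter-Glo) on the other, scaled to a negative control siRNA, with robust z-scores and luciferase per cell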
- Direction: total luciferase, z-score and total luciferase, % of control: higher = more reporter protein produced; luciferase per cell, z-score: higher = more reporter output per viable cell; viable cells, % of control: higher = more viable cells
- Rule for the call: 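An siRNA counts as active if its total luciferase robust z-score exceeds 3; genes with two or more such siRNAs out of three were retested with fresh siRNAs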
- Calls: active = raised luciferase; inactive = no rise
This is one part, drawn at random, of about 59,000 reagents. About 1,510 of all reagents (2.6%) count as active. 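Calls use total luciferase alone and ignore viability, so some active siRNAs may act by altering cell number.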 The numbers tell different reagents against one gene apart.

target | siRNA no. | total luciferase, z-score | total luciferase, % of control | luciferase per cell, z-score | viable cells, % of control | Outcome
SPATA24 (spermatogenesis associated 24) | 1 | -0.33 | 75.3 | -0.427 | 94.2 | inactive
SPATA24 (spermatogenesis associated 24) | 2 | 0.524 | 92.3 | -0.0326 | 104 | inactive
SPATA24 (spermatogenesis associated 24) | 3 | 0.394 | 89.7 | -0.164 | 105 | inactive
IL22RA2 (interleukin 22 receptor subunit alpha 2) | 1 | -0.217 | 77.6 | -0.398 | 96.2 | inactive
IL22RA2 (interleukin 22 receptor subunit alpha 2) | 2 | -2.52 | 31.8 | -1.68 | 55.3 | inactive
IL22RA2 (interleukin 22 receptor subunit alpha 2) | 3 | -0.305 | 75.8 | -0.632 | 100 | inactive
KANK4 (KN motif and ankyrin repeat domains 4) | 1 | 0.265 | 87.2 | 0.293 | 90.2 | inactive
KANK4 (KN motif and ankyrin repeat domains 4) | 2 | -0.394 | 74.1 | 0.0205 | 82.3 | inactive
KANK4 (KN motif and ankyrin repeat domains 4) | 3 | 2.1 | 124 | 2.5 | 71.5 | inactive
THEMIS2 (thymocyte selection associated family member 2) | 1 | 0.227 | 86.4 | -0.294 | 104 | inactive
THEMIS2 (thymocyte selection associated family member 2) | 2 | -0.349 | 74.9 | -0.241 | 89.2 | inactive
THEMIS2 (thymocyte selection associated family member 2) | 3 | 0.972 | 101 | 1.07 | 85.3 | inactive
GPR162 (G protein-coupled receptor 162) | 1 | -0.357 | 74.8 | -0.704 | 101 | inactive
GPR162 (G protein-coupled receptor 162) | 2 | 0.638 | 94.6 | 0.184 | 101 | inactive
GPR162 (G protein-coupled receptor 162) | 3 | 6.19 | 205 | 4.13 | 77.2 | active
FRMPD2 (FERM and PDZ domain containing 2) | 1 | -0.127 | 79.4 | -0.586 | 103 | inactive
FRMPD2 (FERM and PDZ domain containing 2) | 2 | -1.42 | 53.6 | -0.0919 | 61.3 | inactive
FRMPD2 (FERM and PDZ domain containing 2) | 3 | 1.77 | 117 | 1.69 | 83.9 | inactive
NOC4L (nucleolar complex associated 4 homolog) | 1 | -0.567 | 70.6 | -0.807 | 97.6 | inactive
NOC4L (nucleolar complex associated 4 homolog) | 2 | -0.616 | 69.6 | -0.164 | 81.2 | inactive
NOC4L (nucleolar complex associated 4 homolog) | 3 | -0.392 | 74.1 | -0.11 | 85.2 | inactive
CABP2 (calcium binding protein 2) | 1 | 0.406 | 90 | 0.158 | 96.4 | inactive
CABP2 (calcium binding protein 2) | 2 | -0.335 | 75.2 | 0.821 | 67.7 | inactive
CABP2 (calcium binding protein 2) | 3 | 1.88 | 119 | 1.37 | 93 | inactive
TLE5 (TLE family member 5, transcriptional modulator) | 1 | -0.43 | 73.3 | -0.0915 | 83.9 | inactive
TLE5 (TLE family member 5, transcriptional modulator) | 2 | 1.09 | 103 | 0.528 | 101 | inactive
TLE5 (TLE family member 5, transcriptional modulator) | 3 | 1.61 | 114 | 1.36 | 88.9 | inactive
SRRT (serrate, RNA effector molecule) | 1 | -0.721 | 67.6 | 0.406 | 67.8 | inactive
SRRT (serrate, RNA effector molecule) | 2 | -0.145 | 79 | 0.457 | 78.3 | inactive
SRRT (serrate, RNA effector molecule) | 3 | 1.61 | 114 | 1.27 | 91.1 | inactive
CSRNP3 (cysteine and serine rich nuclear protein 3) | 1 | -1.23 | 57.4 | -1.24 | 89 | inactive
CSRNP3 (cysteine and serine rich nuclear protein 3) | 2 | 0.298 | 87.8 | -0.0617 | 99.7 | inactive
CSRNP3 (cysteine and serine rich nuclear protein 3) | 3 | 0.486 | 91.5 | -0.000382 | 102 | inactive
FOXJ3 (forkhead box J3) | 1 | 0.772 | 97.2 | 1.44 | 74.5 | inactive
FOXJ3 (forkhead box J3) | 2 | -0.00789 | 81.7 | 0.578 | 78.4 | inactive
FOXJ3 (forkhead box J3) | 3 | 0.0586 | 83.1 | -0.165 | 96.9 | inactive
RSPH6A (radial spoke head 6 homolog A) | 1 | 0.42 | 90.2 | 0.965 | 78.2 | inactive
RSPH6A (radial spoke head 6 homolog A) | 2 | 0.466 | 91.1 | 0.308 | 93.9 | inactive
RSPH6A (radial spoke head 6 homolog A) | 3 | 0.279 | 87.4 | 0.363 | 88.8 | inactive
ZNF556 (zinc finger protein 556) | 1 | 5.22 | 186 | 3.51 | 82.3 | active
ZNF556 (zinc finger protein 556) | 2 | 0.252 | 86.9 | -0.0592 | 98.6 | inactive
ZNF556 (zinc finger protein 556) | 3 | -0.227 | 77.4 | -0.382 | 95.6 | inactive
BCAS4 (breast carcinoma amplified sequence 4) | 1 | -0.784 | 66.3 | -0.144 | 76.9 | inactive
BCAS4 (breast carcinoma amplified sequence 4) | 2 | 0.0833 | 83.5 | 0.167 | 89.3 | inactive
BCAS4 (breast carcinoma amplified sequence 4) | 3 | -0.94 | 63.2 | -1.07 | 93.6 | inactive
SLC24A1 | 1 | 0.38 | 89.4 | 0.0455 | 98.8 | inactive
SLC24A1 | 2 | -0.103 | 79.8 | -0.74 | 108 | inactive
SLC24A1 | 3 | 1.45 | 111 | 1.85 | 76.1 | inactive
CCL25 (C-C motif chemokine ligand 25) | 1 | 0.0352 | 82.6 | -0.996 | 120 | inactive
CCL25 (C-C motif chemokine ligand 25) | 2 | 0.604 | 93.9 | -0.291 | 113 | inactive
CCL25 (C-C motif chemokine ligand 25) | 3 | -0.63 | 69.3 | -1.07 | 103 | inactive
FNDC3B (fibronectin type III domain containing 3B) | 1 | 1.08 | 103 | 0.496 | 101 | inactive
FNDC3B (fibronectin type III domain containing 3B) | 2 | -0.0856 | 80.2 | 0.0828 | 87.7 | inactive
FNDC3B (fibronectin type III domain containing 3B) | 3 | -1.51 | 51.8 | -1.24 | 80.2 | inactive
LOC647115 (retired record) | 1 | -0.489 | 72.2 | -0.866 | 101 | inactive
LOC647115 (retired record) | 2 | -0.34 | 75.1 | 0.268 | 78.2 | inactive
LOC647115 (retired record) | 3 | 0.848 | 98.8 | 1.82 | 68.4 | inactive

4 entries from above, reformatted.
| target | siRNA no. | total luciferase, z-score | total luciferase, % of control | luciferase per cell, z-score | viable cells, % of control | Outcome |
| --- | --- | --- | --- | --- | --- | --- |
| FOXJ3 (forkhead box J3) | 2 | -0.00789 | 81.7 | 0.578 | 78.4 | inactive |
| FOXJ3 (forkhead box J3) | 3 | 0.0586 | 83.1 | -0.165 | 96.9 | inactive |
| RSPH6A (radial spoke head 6 homolog A) | 1 | 0.42 | 90.2 | 0.965 | 78.2 | inactive |
| RSPH6A (radial spoke head 6 homolog A) | 2 | 0.466 | 91.1 | 0.308 | 93.9 | inactive |
